According to the supplement of paper PMC10849652:
The list shows a part of the results.

Amino acid sequences for entries named in this document (tags omitted). A change or cut given only in a name is not applied to a line headed by its entry.
UniProt O94766: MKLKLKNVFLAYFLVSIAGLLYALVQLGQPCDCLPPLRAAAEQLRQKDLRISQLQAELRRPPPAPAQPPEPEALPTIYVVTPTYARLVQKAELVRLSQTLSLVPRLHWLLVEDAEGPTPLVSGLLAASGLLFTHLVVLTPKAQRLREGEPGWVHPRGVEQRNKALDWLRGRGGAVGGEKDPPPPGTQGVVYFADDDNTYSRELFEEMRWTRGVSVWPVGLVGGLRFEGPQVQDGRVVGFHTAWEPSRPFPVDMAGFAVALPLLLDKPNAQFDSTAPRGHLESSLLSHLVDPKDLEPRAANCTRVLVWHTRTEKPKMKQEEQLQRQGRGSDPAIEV
UniProt Q8WXE1: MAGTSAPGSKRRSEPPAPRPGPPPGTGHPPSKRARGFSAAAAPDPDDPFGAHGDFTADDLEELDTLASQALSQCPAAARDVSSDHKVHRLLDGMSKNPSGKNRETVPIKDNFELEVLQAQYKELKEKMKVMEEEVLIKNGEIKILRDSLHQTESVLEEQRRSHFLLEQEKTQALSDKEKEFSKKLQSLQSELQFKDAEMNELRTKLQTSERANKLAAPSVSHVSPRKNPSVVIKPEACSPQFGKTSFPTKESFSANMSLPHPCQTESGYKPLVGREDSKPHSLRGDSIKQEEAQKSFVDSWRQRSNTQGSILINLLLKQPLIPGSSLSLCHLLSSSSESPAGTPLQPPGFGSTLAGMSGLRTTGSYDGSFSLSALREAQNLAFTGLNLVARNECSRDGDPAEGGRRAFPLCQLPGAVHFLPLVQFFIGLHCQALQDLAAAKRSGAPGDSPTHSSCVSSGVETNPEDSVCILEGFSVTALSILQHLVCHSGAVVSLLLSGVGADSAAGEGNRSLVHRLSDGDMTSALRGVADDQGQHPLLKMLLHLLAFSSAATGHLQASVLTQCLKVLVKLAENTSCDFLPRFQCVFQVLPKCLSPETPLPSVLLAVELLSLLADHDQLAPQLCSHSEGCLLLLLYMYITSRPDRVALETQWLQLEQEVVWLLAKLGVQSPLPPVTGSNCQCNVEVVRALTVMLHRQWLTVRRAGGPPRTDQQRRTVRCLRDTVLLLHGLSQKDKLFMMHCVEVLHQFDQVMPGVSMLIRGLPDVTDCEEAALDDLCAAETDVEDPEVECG
UniProt O95816: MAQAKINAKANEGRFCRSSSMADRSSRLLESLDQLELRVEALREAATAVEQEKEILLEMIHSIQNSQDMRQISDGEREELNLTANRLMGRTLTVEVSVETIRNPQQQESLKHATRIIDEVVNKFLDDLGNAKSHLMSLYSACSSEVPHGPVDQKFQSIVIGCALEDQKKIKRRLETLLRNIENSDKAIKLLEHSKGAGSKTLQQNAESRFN
UniProt Q5VW32: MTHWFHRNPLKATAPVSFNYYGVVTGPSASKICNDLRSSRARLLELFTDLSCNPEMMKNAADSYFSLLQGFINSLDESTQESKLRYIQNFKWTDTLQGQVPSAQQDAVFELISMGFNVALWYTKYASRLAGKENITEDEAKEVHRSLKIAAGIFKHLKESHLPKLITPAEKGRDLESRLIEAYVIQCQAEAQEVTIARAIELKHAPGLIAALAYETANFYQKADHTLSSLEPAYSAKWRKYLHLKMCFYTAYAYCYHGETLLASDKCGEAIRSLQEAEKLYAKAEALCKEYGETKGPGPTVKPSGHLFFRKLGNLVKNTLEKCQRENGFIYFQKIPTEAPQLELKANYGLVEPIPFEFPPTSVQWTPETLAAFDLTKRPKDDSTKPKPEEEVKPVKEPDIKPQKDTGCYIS
UniProt O95861: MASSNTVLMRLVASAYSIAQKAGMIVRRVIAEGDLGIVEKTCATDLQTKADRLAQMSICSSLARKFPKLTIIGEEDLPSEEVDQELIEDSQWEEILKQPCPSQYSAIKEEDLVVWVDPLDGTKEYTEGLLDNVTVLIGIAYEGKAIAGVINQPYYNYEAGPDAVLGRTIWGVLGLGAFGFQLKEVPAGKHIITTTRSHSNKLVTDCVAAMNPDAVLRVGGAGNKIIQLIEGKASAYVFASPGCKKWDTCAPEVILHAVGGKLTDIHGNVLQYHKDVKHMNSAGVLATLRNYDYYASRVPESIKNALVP
UniProt Q6PJG6: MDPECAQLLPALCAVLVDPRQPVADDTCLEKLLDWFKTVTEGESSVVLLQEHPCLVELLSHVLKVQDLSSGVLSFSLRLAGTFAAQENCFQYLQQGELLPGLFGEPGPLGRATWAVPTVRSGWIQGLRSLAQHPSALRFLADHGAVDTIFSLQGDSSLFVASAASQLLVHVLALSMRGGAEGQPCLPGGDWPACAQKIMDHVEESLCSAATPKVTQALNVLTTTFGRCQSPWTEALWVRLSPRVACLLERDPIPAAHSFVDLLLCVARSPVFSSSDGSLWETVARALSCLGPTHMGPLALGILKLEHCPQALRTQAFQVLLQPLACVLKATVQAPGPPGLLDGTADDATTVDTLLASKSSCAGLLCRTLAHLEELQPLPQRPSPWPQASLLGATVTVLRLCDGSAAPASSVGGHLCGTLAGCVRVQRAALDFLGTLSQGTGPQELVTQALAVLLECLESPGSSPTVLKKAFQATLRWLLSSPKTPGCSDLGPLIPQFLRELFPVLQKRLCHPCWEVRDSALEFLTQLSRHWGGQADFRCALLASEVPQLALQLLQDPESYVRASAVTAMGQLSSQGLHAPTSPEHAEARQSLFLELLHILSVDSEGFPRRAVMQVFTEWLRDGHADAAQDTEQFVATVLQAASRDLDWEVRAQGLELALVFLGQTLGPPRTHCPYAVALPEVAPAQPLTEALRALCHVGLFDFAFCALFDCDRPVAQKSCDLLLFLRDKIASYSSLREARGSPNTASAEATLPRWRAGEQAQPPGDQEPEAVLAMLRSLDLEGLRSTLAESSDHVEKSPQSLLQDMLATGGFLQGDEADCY
UniProt Q9Y276: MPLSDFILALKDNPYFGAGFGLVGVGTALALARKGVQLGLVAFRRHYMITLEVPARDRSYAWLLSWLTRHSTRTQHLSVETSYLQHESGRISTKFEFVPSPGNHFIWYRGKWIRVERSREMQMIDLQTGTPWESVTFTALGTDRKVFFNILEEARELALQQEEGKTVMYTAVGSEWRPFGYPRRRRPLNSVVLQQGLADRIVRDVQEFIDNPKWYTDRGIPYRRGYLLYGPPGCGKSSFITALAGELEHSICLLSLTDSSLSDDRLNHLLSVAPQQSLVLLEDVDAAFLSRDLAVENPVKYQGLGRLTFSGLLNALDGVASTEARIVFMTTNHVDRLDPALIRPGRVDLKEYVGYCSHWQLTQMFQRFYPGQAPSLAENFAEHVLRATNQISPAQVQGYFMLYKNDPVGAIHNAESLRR
UniProt Q07812, whole entry, looked up: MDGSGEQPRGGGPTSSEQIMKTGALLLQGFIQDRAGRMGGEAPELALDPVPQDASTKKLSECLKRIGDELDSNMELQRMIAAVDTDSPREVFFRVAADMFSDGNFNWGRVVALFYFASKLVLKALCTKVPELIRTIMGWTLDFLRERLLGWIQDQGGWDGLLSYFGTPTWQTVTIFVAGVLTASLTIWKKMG
UniProt Q8WWM7: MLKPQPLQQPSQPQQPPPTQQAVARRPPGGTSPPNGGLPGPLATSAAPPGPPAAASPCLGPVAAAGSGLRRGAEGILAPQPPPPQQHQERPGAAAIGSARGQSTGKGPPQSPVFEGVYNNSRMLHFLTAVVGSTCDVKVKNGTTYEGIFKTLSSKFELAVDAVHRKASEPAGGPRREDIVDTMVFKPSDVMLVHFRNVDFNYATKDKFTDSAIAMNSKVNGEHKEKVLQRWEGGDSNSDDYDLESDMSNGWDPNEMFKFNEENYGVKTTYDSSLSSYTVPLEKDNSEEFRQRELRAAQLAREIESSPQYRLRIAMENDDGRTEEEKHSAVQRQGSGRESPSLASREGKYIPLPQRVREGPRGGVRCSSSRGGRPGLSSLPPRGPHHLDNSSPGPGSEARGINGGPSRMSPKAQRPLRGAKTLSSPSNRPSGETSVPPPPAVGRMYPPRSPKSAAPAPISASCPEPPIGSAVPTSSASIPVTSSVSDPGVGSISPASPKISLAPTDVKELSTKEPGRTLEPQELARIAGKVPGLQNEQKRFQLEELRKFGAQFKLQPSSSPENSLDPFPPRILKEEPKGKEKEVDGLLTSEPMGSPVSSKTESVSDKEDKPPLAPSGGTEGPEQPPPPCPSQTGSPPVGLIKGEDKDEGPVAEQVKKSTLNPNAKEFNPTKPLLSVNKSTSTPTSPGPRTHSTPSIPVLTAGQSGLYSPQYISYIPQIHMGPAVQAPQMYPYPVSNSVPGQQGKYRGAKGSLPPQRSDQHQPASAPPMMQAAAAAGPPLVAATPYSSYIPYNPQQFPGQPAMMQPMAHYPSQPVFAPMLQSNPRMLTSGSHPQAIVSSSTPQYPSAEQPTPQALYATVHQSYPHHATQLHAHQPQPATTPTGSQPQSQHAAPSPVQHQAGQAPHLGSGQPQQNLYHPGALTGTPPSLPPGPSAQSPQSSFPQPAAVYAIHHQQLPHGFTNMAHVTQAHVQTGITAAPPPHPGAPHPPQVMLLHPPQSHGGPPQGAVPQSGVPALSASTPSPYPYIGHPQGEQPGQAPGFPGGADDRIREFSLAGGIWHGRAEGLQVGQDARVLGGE
UniProt Q8NBF6: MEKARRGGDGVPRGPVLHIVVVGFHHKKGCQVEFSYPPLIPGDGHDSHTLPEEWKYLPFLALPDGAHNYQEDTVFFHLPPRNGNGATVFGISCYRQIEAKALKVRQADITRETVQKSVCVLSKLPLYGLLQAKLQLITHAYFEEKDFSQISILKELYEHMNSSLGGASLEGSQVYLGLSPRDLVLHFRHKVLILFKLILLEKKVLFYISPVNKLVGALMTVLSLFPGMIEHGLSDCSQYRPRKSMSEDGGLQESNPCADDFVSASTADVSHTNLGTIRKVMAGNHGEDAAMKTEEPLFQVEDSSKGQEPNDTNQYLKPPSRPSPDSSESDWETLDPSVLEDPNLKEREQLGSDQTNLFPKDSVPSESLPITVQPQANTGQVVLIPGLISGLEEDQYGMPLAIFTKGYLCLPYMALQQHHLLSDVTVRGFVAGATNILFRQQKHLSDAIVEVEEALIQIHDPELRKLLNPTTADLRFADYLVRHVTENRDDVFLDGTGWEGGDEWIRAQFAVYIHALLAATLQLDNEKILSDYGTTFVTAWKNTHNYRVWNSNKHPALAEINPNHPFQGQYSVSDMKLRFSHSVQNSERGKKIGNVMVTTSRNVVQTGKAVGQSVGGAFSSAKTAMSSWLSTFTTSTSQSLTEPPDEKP
UniProt O95999: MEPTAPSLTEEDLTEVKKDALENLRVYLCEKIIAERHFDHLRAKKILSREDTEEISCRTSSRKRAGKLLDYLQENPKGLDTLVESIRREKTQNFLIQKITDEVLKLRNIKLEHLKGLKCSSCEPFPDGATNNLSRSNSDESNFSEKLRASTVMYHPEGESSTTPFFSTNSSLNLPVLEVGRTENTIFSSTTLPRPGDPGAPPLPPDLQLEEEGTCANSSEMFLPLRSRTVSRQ
UniProt O60512: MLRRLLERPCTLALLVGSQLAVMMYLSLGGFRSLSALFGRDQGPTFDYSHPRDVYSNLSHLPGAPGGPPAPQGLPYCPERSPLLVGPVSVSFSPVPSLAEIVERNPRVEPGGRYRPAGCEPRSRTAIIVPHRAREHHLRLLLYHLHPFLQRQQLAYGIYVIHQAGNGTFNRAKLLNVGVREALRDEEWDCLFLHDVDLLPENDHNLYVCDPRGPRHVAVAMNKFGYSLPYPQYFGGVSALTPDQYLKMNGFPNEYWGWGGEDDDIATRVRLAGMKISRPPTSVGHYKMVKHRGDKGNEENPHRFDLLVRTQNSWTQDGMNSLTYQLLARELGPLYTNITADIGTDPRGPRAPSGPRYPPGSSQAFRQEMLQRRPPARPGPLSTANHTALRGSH
UniProt Q6UW56: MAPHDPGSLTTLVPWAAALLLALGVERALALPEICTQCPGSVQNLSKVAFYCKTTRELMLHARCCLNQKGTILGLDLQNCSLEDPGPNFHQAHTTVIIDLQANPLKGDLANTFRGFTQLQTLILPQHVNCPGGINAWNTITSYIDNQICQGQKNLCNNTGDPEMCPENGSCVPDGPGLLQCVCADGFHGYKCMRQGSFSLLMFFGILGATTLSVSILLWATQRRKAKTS
UniProt Q13867: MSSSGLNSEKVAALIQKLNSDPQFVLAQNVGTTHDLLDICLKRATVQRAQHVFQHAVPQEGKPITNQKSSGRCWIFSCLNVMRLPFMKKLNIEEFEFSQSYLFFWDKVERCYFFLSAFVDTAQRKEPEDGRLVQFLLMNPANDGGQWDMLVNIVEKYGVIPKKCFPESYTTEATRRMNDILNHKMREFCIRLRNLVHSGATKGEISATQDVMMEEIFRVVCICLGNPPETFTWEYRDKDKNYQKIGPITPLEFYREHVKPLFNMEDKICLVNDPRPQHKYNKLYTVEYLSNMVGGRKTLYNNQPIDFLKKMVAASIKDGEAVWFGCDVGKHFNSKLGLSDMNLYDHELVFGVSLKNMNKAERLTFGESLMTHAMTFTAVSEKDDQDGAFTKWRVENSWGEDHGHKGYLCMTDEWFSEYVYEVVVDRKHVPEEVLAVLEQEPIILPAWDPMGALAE

Legend:
Experiment in all cases: log2 fold change, soluble protein after heating vs DMSO (PISA); higher = thermal stabilisation; K562 cells, 10 uM, 30 min; active = over 0.2 and 3.5 SD of the protein, either way, in both replicates (recomputed)
saracatinib = compound: CN1CCN(CCOc2cc(OC3CCOCC3)c3c(Nc4c(Cl)ccc5c4OCO5)ncnc3c2)CC1 [saracatinib]
Method in brief: (§1)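 Aliquots of K562 cells (2×10^6 cells/mL) treated with 10 μM compound for 30 min were heated for 3 min over 48°C-58°C. After pooling and extraction in PBS with 0.5% NP-40 at 4°C, soluble protein from a 21,000xg, 90 min spin was quantified by TMTpro 16plex LC-MS/MS with channel sums equalised. Thermal stability is expressed against control samples, from duplicates, as a log2 fold change.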

sotrastaurin = compound: CN1CCN(c2nc(C3=C(c4c[nH]c5ccccc45)C(=O)NC3=O)c3ccccc3n2)CC1 [sotrastaurin]
Method in brief: as §1

alvocidib = compound: CN1CC[C@H](c2c(O)cc(O)c3c(=O)cc(-c4ccccc4Cl)oc23)[C@H](O)C1 [alvocidib]
Method in brief: as §1

Tubastatin A = compound: CN1CCc2c(c3ccccc3n2Cc2ccc(C(=O)NO)cc2)C1 [Tubastatin A]
Method in brief: as §1

[1] = compound: CNC(=O)C1=CC=CC=C1NC2=NC(=NC=C2Cl)NC3=C(C=C(C=C3)N4CCOCC4)OC
Method in brief: as §1

defactinib = compound: CNC(=O)c1ccc(Nc2ncc(C(F)(F)F)c(NCc3nccnc3N(C)S(C)(=O)=O)n2)cc1 [defactinib]
Method in brief: as §1

rucaparib = compound: CNCc1ccc(-c2[nH]c3cc(F)cc4c3c2CCNC4=O)cc1 [rucaparib]
Method in brief: as §1

[2] = compound: CNc1nc(-c2ccc3c(N)n[nH]c3c2)cc(N2C[C@@H](C(=O)NC3CCCCC3)CC[C@H]2C)n1
Method in brief: as §1

encorafenib = compound: COC(=O)N[C@@H](C)CNc1nccc(-c2cn(C(C)C)nc2-c2cc(Cl)cc(NS(C)(=O)=O)c2F)n1 [encorafenib]
Method in brief: as §1

[3] = compound: COC(=O)[C@H](CCSC)NC(=O)C1=C(C=C(C=C1)NC[C@H](CS)N)C2=CC=CC=C2
Method in brief: as §1

[4] = compound: COC1=CC=C(C=C1)CN2C=CC3=C2C=C(C=C3)C(=O)NO
Method in brief: as §1

filanesib = compound: CON(C)C(=O)N1N=C(c2cc(F)ccc2F)S[C@@]1(CCCN)c1ccccc1 [filanesib]
Method in brief: as §1

zotarolimus = compound: CO[C@H]1C[C@@H]2CC[C@@H](C)[C@@](O)(O2)C(=O)C(=O)N2CCCC[C@H]2C(=O)O[C@H]([C@H](C)C[C@@H]2CC[C@H](n3cnnn3)[C@H](OC)C2)CC(=O)[C@H](C)/C=C(\C)[C@@H](O)[C@@H](OC)C(=O)[C@H](C)C[C@H](C)/C=C/C=C/C=C/1C [zotarolimus]
Method in brief: as §1

idasanutlin = compound: COc1cc(C(=O)O)ccc1NC(=O)[C@@H]1N[C@@H](CC(C)(C)C)[C@](C#N)(c2ccc(Cl)cc2F)[C@H]1c1cccc(Cl)c1F [idasanutlin]
Method in brief: as §1

alisertib = compound: COc1cc(Nc2ncc3c(n2)-c2ccc(Cl)cc2C(c2c(F)cccc2OC)=NC3)ccc1C(=O)O [alisertib]
Method in brief: as §1

[5] = compound: COc1cc2nc(-c3cc(F)ccc3O)nc(N[C@@H]3CNC[C@H]3C(C)(C)O)c2cc1OC
Method in brief: as §1

gefitinib = compound: COc1cc2ncnc(Nc3ccc(F)c(Cl)c3)c2cc1OCCCN1CCOCC1 [gefitinib]
Method in brief: as §1

[6] = compound: COc1cccc2cc(-c3nc([C@H]4CC[C@H](C(=O)O)CC4)n4ncnc(N)c34)[nH]c12
Method in brief: as §1

lapatinib = compound: CS(=O)(=O)CCNCc1ccc(-c2ccc3ncnc(Nc4ccc(OCc5cccc(F)c5)c(Cl)c4)c3c2)o1 [lapatinib]
Method in brief: as §1

pictilisib = compound: CS(=O)(=O)N1CCN(Cc2cc3nc(-c4cccc5[nH]ncc45)nc(N4CCOCC4)c3s2)CC1 [pictilisib]
Method in brief: as §1

Measured: log2 fold change

B3GAT3 (UniProt O94766)
inactive: saracatinib 0.007 | sotrastaurin 0.012 | alvocidib -0.056 | Tubastatin A 0.005 | [1] -0.009 | defactinib 0.138 | rucaparib 0.16 | [2] -0.039 | encorafenib 0.088 | [3] 0.023 | [4] 0.074 | filanesib 0.03 | zotarolimus 0.023 | idasanutlin -0.069 | alisertib -0.087 | [5] 0.003 | gefitinib 0.014 | [6] -0.016 | lapatinib 0.009 | pictilisib -0.01

ATRIP (UniProt Q8WXE1)
inactive: saracatinib -0.041 | sotrastaurin -0.04 | alvocidib -0.169 | Tubastatin A -0.033 | [1] -0.034 | defactinib 0.053 | rucaparib -0.096 | [2] -0.037 | encorafenib 0.006 | [3] -0.065 | [4] -0.152 | filanesib 0.016 | zotarolimus 0.034 | idasanutlin 0 | alisertib -0.02 | [5] 0.1 | gefitinib 0.001 | [6] -0.013 | lapatinib 0.019 | pictilisib 0.006

BAG2 (UniProt O95816)
inactive: saracatinib -0.013 | sotrastaurin -0.055 | alvocidib 0.161 | Tubastatin A 0.027 | [1] -0.032 | defactinib 0.097 | rucaparib 0.359 | [2] 0.014 | encorafenib 0.077 | [3] 0.01 | [4] -0.071 | filanesib 0.24 | zotarolimus 0.05 | idasanutlin 0.046 | alisertib -0.201 | [5] -0.081 | gefitinib -0.022 | [6] -0.195 | lapatinib 0.12 | pictilisib -0.045

BROX (UniProt Q5VW32)
inactive: saracatinib -0.009 | sotrastaurin -0.089 | alvocidib -0.035 | Tubastatin A 0.012 | [1] 0.082 | defactinib -0.06 | rucaparib -0.025 | [2] -0.032 | encorafenib 0.061 | [3] -0.031 | [4] 0.078 | filanesib -0.036 | zotarolimus 0.054 | idasanutlin -0.067 | alisertib 0.008 | [5] 0.106 | gefitinib 0.012 | [6] -0.108 | lapatinib -0.025 | pictilisib 0.026

B3GLCT (UniProt Q6Y288)
inactive: saracatinib -0.013 | sotrastaurin -0.025 | alvocidib -0.002 | Tubastatin A 0.018 | [1] 0.028 | defactinib 0.024 | rucaparib 0.098 | [2] 0.033 | encorafenib -0.089 | [3] -0.018 | [4] -0.107 | filanesib -0.016 | zotarolimus 0.019 | idasanutlin -0.019 | alisertib -0.058 | [5] -0.103 | gefitinib -0.017 | [6] -0.008 | lapatinib 0.216 | pictilisib 0.089

BPNT1 (UniProt O95861)
inactive: saracatinib 0.027 | sotrastaurin 0.041 | alvocidib 0.006 | Tubastatin A 0.012 | [1] 0.025 | defactinib -0.018 | rucaparib -0.033 | [2] -0.004 | encorafenib -0.035 | [3] 0.005 | [4] 0.022 | filanesib -0.046 | zotarolimus -0.005 | idasanutlin -0.017 | alisertib 0.157 | [5] 0.023 | gefitinib 0.015 | [6] 0.026 | lapatinib -0.003 | pictilisib 0.065

BRAT1 (UniProt Q6PJG6)
inactive: saracatinib 0.001 | sotrastaurin -0.045 | alvocidib -0.155 | Tubastatin A 0.037 | [1] 0.002 | defactinib -0.065 | rucaparib 0.009 | [2] -0.042 | encorafenib 0.009 | [3] -0.053 | [4] -0.085 | filanesib -0.013 | zotarolimus 0.13 | idasanutlin -0.062 | alisertib -0.071 | [5] 0.01 | gefitinib 0.037 | [6] -0.022 | lapatinib -0.052 | pictilisib -0.005

BACH1 (UniProt O14867)
inactive: saracatinib 0.07 | sotrastaurin -0.02 | alvocidib 0.028 | Tubastatin A -0.098 | [1] -0.035 | defactinib -0.016 | rucaparib -0.025 | [2] -0.035 | encorafenib -0.016 | [3] 0.034 | [4] -0.003 | filanesib 0.043 | zotarolimus 0.006 | idasanutlin 0.031 | alisertib -0.064 | [5] -0.01 | gefitinib -0.043 | [6] 0.036 | lapatinib 0.018 | pictilisib 0.042

BCS1L (UniProt Q9Y276)
inactive: saracatinib 0.003 | sotrastaurin 0.048 | alvocidib 0.005 | Tubastatin A 0.021 | [1] -0.044 | defactinib 0.011 | rucaparib -0.016 | [2] -0.001 | encorafenib -0.022 | [3] 0.018 | [4] -0.032 | filanesib -0.014 | zotarolimus -0.049 | idasanutlin -0.072 | alisertib -0.041 | [5] 0.041 | gefitinib 0.028 | [6] 0.029 | lapatinib -0.021 | pictilisib 0.053

BAX isoform 2 (UniProt Q07812)
inactive: saracatinib 0.045 | sotrastaurin 0.003 | alvocidib 0.05 | Tubastatin A -0.033 | [1] 0.01 | defactinib -0.014 | rucaparib -0.042 | [2] -0.051 | encorafenib -0.006 | [3] 0.03 | [4] -0.031 | filanesib 0.01 | zotarolimus -0.007 | idasanutlin 0.014 | alisertib -0.055 | [5] -0.03 | gefitinib 0.012 | [6] 0.053 | lapatinib 0 | pictilisib -0.043

Reprinted from the entries so far (two entries):
BRAT1 (UniProt Q6PJG6)
inactive: saracatinib 0.001 | sotrastaurin -0.045 | alvocidib -0.155 | Tubastatin A 0.037 | [1] 0.002 | defactinib -0.065 | rucaparib 0.009 | [2] -0.042 | encorafenib 0.009 | [3] -0.053 | [4] -0.085 | filanesib -0.013 | zotarolimus 0.13 | idasanutlin -0.062 | alisertib -0.071 | [5] 0.01 | gefitinib 0.037 | [6] -0.022 | lapatinib -0.052 | pictilisib -0.005

BACH1 (UniProt O14867)
inactive: saracatinib 0.07 | sotrastaurin -0.02 | alvocidib 0.028 | Tubastatin A -0.098 | [1] -0.035 | defactinib -0.016 | rucaparib -0.025 | [2] -0.035 | encorafenib -0.016 | [3] 0.034 | [4] -0.003 | filanesib 0.043 | zotarolimus 0.006 | idasanutlin 0.031 | alisertib -0.064 | [5] -0.01 | gefitinib -0.043 | [6] 0.036 | lapatinib 0.018 | pictilisib 0.042

Next part.

ATXN2L (UniProt Q8WWM7)
inactive: saracatinib 0.003 | sotrastaurin -0.041 | alvocidib -0.007 | Tubastatin A -0.005 | [1] 0.004 | defactinib -0.008 | rucaparib 0.048 | [2] 0.005 | encorafenib -0.001 | [3] 0 | [4] -0.026 | filanesib -0.009 | zotarolimus -0.041 | idasanutlin 0.033 | alisertib -0.014 | [5] -0.056 | gefitinib -0.031 | [6] -0.01 | lapatinib 0.061 | pictilisib -0.007

AVL9 (UniProt Q8NBF6)
inactive: saracatinib 0.036 | sotrastaurin -0.066 | alvocidib -0.07 | Tubastatin A -0.024 | [1] -0.035 | defactinib -0.042 | rucaparib -0.086 | [2] -0.066 | encorafenib 0.054 | [3] 0.033 | [4] 0.016 | filanesib -0.108 | zotarolimus 0.05 | idasanutlin -0.068 | alisertib -0.047 | [5] -0.085 | gefitinib -0.055 | [6] 0.065 | lapatinib 0.016 | pictilisib -0.033

BCL10 (UniProt O95999)
inactive: saracatinib 0.043 | sotrastaurin -0.065 | alvocidib 0.126 | Tubastatin A -0.013 | [1] -0.011 | defactinib -0.164 | rucaparib -0.032 | [2] -0.14 | encorafenib -0.039 | [3] -0.031 | [4] -0.127 | filanesib -0.013 | zotarolimus -0.047 | idasanutlin 0.023 | alisertib -0.062 | [5] 0.039 | gefitinib -0.028 | [6] -0.002 | lapatinib -0.058 | pictilisib -0.036

B4GALT3 (UniProt O60512)
inactive: saracatinib 0.201 | sotrastaurin -0.117 | alvocidib -0.086 | Tubastatin A -0.081 | [1] 0.066 | defactinib -0.031 | rucaparib 0.005 | [2] -0.086 | encorafenib 0.007 | [3] -0.01 | [4] 0.14 | filanesib 0.027 | zotarolimus -0.05 | idasanutlin 0.059 | alisertib -0.052 | [5] -0.029 | gefitinib -0.065 | [6] 0 | lapatinib 0.087 | pictilisib 0.005

ATRAID isoform 3 (UniProt Q6UW56)
inactive: saracatinib -0.027 | sotrastaurin 0.006 | alvocidib -0.02 | Tubastatin A 0.055 | [1] -0.059 | defactinib 0.033 | rucaparib -0.029 | [2] -0.042 | encorafenib -0.042 | [3] 0.025 | [4] -0.034 | filanesib -0.074 | zotarolimus -0.029 | idasanutlin -0.052 | alisertib -0.072 | [5] -0.015 | gefitinib -0.033 | [6] 0.167 | lapatinib -0.044 | pictilisib 0.056

BLMH (UniProt Q13867)
inactive: saracatinib -0.029 | sotrastaurin 0.022 | alvocidib -0.018 | Tubastatin A -0.008 | [1] 0.028 | defactinib -0.031 | rucaparib -0.041 | [2] -0.076 | encorafenib 0.006 | [3] 0.081 | [4] -0.036 | filanesib -0.029 | zotarolimus 0.022 | idasanutlin 0.011 | alisertib 0.31 | [5] -0.061 | gefitinib 0.011 | [6] -0.04 | lapatinib -0.125 | pictilisib 0.007
